The campaign covered roughly 320,000 compounds. About 22,000 (6.9%) were called active. Inconclusive results, whose numbers are uncertain, are shown with a selection of clear calls. Calls come from the whole dose curve; as a rule, active = well fitted inhibition curve with a large enough effect; inconclusive = small, poorly fitted or top-dose-only effect, or another doubt; inactive = no such curve, though single readings can be large or run the other way. Where the call is inconclusive, the potency comes from a doubtful curve fit.
Assay: Primary qHTS for delayed death inhibitors of the malarial parasite plastid, 96 hour incubation
Conditions: P. falciparum luciferase reporter growth; series mostly up to 28.7 µM
In short: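 Cell-based qHTS: luciferase-tagged P. falciparum in erythrocytes (2% hematocrit, 0.05% parasitemia final) incubated with compounds for 96 hours, 37 C, 5% CO2; luciferase detection reagent then added and luminescence measured.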
Potency is the fitted concentration of half-maximal effect.

Compound | Potency
O=C(Nc1cccs1)Nc1ccccc1Br | inconclusive: 18.5 µM [inhibitor, single point]
Cc1ccc(S(=O)(=O)N(C)C)cc1NC(=O)CSc1nc2ccccc2[nH]1 | active: 9.28 µM
CCN1CCN(S(=O)(=O)c2ccc(Cl)c(C(=O)Nc3ccc(C(=O)N(CC)CC)cc3)c2)CC1 | inconclusive: 10.4 µM [inhibitor, single point]
Cc1ccc(CNC(=O)CN2c3cccc4cccc(c34)S2(=O)=O)cc1 | inconclusive: 18.5 µM [inhibitor, single point]
O=C(CSc1nc2c(c(C(F)(F)F)n1)CCc1ccccc1-2)NCc1ccc(F)cc1 | inconclusive: 10.4 µM [inhibitor, single point]
CCN1CCN(c2ccc(S(=O)(=O)N3CCCCC3)cc2NC(=O)/C=C/c2ccc(OC)c(OC)c2)CC1 | active: 6.57 µM
O=c1c2c(nc3cc(-c4ccccc4)[nH]n13)CCC2 | inconclusive: 20.8 µM [inhibitor, partial curve, poor fit]
CCOC(=O)C1=C(CN2CCc3ccccc32)NC(=O)NC1c1ccc(Cl)cc1 (configuration not stated) | active: 2.08 µM
O=C1COc2ccc(C(=O)CCl)cc2N1 | inconclusive: 4.65 µM [inhibitor, partial curve, poor fit]
COc1ccc(-c2oc3cccnc3c2/C=C/c2ccc(OC)c(OC)c2)cc1 | active: 11.7 µM
CCCCN(CCCC)C(=O)C1(P(=O)(c2ccccc2)c2ccccc2)CCC1 | inconclusive: 10.4 µM [inhibitor, single point]
N#CC(C#N)=C(C#N)c1ccc(Nc2ccccc2)cc1 | active: 11.7 µM
CCCc1cc(=O)[nH]c(SCC(=O)N(CC)Cc2ccccc2)n1 | inconclusive: 4.15 µM [inhibitor, partial curve, poor fit]
CN1CCN(c2ccc(NC(=O)COc3ccc4ccccc4c3)cc2)CC1 | inactive
Cc1ccc(N(CC(=O)NC(C)(C)C)C(=O)CNC(=O)c2cccs2)cc1C | inactive
O=S(=O)(c1ccccc1)c1nnn2c1nc(NC1CCN(Cc3ccccc3)CC1)c1cc(Cl)ccc12 | inactive
Cc1cc2oc(=O)cc(-c3cc4ccccc4o3)c2cc1OC(=O)N(C)C | inconclusive: 14.7 µM [inhibitor, single point]
COc1cccc(C(=O)NC(=S)Nc2nnn(C)n2)c1 | inactive
O=C(Cn1cnc2ccccc2c1=O)Nc1ccc(N2CCOCC2)cc1 | inactive
CCCCNC(=O)Nc1ccc(C(O)(C(=O)OC)C(F)(F)F)cc1 (configuration not stated) | inactive
CNC(=S)N/N=C/c1c(Cl)cccc1Cl | inconclusive: 18.5 µM [inhibitor, single point]
C/C(=N\NC(=O)C1CC1)c1ccccc1Br | inconclusive: 13.1 µM [inhibitor, partial curve]
CCCC(C)NC(=S)NC(=O)c1cc(S(=O)(=O)N2CCOCC2)ccc1C (configuration not stated) | inconclusive: 11.7 µM [inhibitor, single point]
COc1ccc(-n2c(Cc3cccn3C)nnc2SCC(=O)Nc2ccc(C(C)=O)cc2)cc1 | active: 0.465 µM

Compound | Potency
C=CCSc1nccc(-c2nn(-c3ccc(C)cc3)ccc2=O)n1 | inconclusive: 11.7 µM [inhibitor, single point]
N#CCCn1cc(/C=N/NC(=O)c2ccncc2)c(-c2ccc(F)cc2)n1 | inactive
COc1ccccc1NS(=O)(=O)c1cc(NC(=O)C(C)C)ccc1N1CCCCC1 | inconclusive: 10.4 µM [inhibitor, single point]
CC(=O)c1ccc(OCCCC(=O)Nc2ccc3c(c2)OCCO3)cc1 | inconclusive: 18.5 µM [inhibitor, single point]
OC(c1ccc(F)cc1)(C1CCCCC1)C(CN1CCOCC1)c1ccccc1 (configuration not stated) | inconclusive: 18.5 µM [inhibitor, single point]
Cc1ccc(/C=C2/Sc3ccccc3N(CC(=O)NCC3CCCO3)C2=O)cc1 (configuration not stated) | inactive
CCOC(=O)c1c(C)oc2c1c(C=NC1CCS(=O)(=O)C1)c(O)c1ccccc12 (configuration not stated) | inactive
O=C(NC1CCCC1)C(c1ccco1)N(C(=O)c1csnn1)c1ccccc1 (configuration not stated) | inactive
COc1ccccc1N1CCN(C(=S)NC(=O)/C=C/c2ccccc2)CC1 | inconclusive: 18.5 µM [inhibitor, partial curve, poor fit]
CCN(CC(=O)Nc1ccc(NC(C)=O)cc1)C(=O)c1cccc(S(=O)(=O)N2c3ccccc3CC2C)c1 (configuration not stated) | inconclusive: 18.5 µM [inhibitor, single point]
CCN1CCN(C(=O)C2=CC(c3ccc(C)cc3)=NS(=O)(=O)N2C)CC1 | inconclusive: 3.7 µM [inhibitor, single point]
C/C=C/c1cc(CN2CCN(c3ccccc3)CC2)c(O)c(OC)c1 | active: 1.65 µM
Cn1ccc(C(=O)N/N=C/c2c[nH]c3ccccc23)n1 | inconclusive: 8.28 µM [inhibitor, partial curve, poor fit]
C=CCN=C1CC(C)(C)CC(=O)/C1=C(\O)CCCN1C(=O)c2ccccc2C1=O | inconclusive: 18.5 µM [inhibitor, single point]
CCOc1ccc(NC(=O)[C@@H]2CCCN2C(=O)c2cccs2)cc1S(=O)(=O)N1CCCCC1 | active: 9.28 µM
COc1ccc(C=O)cc1OS(=O)(=O)c1ccccc1[N+](=O)[O-] | inconclusive: 13.1 µM [inhibitor, single point]
Cc1ccc(OCC(=O)NCCNC(=O)c2cnccn2)cc1C | inconclusive: 1.85 µM [inhibitor, partial curve, poor fit]
Cc1ccc(-c2cc(C(=O)N/N=C/c3ccccc3O)n[nH]2)o1 | inconclusive: 18.5 µM [inhibitor, single point]
Cn1cc(/C=N\NC(=O)c2cccs2)c2ccccc21 | active: 5.86 µM
Cc1ccc(N=C(N)N=C(N)N)cc1 | inconclusive: 8.28 µM [inhibitor, partial curve]
CS(=O)(=O)N(CC(=O)NN=C1CCCCCC1)c1ccc(Oc2ccccc2)cc1 | inactive
CC(=O)c1ccc(N2CCN(C(=S)Nc3cc(C)ccc3C)CC2)cc1 | inconclusive: 11.7 µM [inhibitor, partial curve]
Cn1c([N+](=O)[O-])cnc1COC(N)=O | inactive
CCCc1cc(C(=O)N2CCCC(Cc3cccc(Cl)c3)(C(=O)OCC)C2)n(C)n1 (configuration not stated) | inconclusive: 10.4 µM [inhibitor, single point]

Compound | Potency
COc1ccc(-c2cc(C(=O)NC3CC3)c3ccccc3n2)cc1 | inconclusive: 14.7 µM [inhibitor, single point]
CCc1ccc(CC2S/C(=C(\C#N)C(C)=O)NC2=O)cc1 (configuration not stated) | active: 2.94 µM
CN(C(=O)Oc1ccc(F)cc1)c1ccccc1 | inconclusive: 18.5 µM [inhibitor, single point]
O=C(CN(c1ccccc1)S(=O)(=O)c1ccccc1[N+](=O)[O-])NN=C1CCCCCCC1 | inactive
COc1cc(/C=N/NC(=S)NCCN2CCOCC2)cc(OC)c1O | inactive
CCn1c(SCC(=O)N2CCCCC2)nnc1-c1ccc(S(=O)(=O)N2CCN(C)CC2)cc1 | inactive
O=C1OCCC1Sc1nc2ccccc2n1Cc1ccccc1 (configuration not stated) | inconclusive: 14.7 µM [inhibitor, partial curve, poor fit]
O=C1COc2ccc(-c3n[nH]c(=O)c4ccccc34)cc2N1 | inactive
COc1ccc(CN2CCNC(=O)C2CC(=O)NCC2CCOCC2)cc1C (configuration not stated) | inactive
Cc1nnc(NC(=O)C(C)Sc2nnc(CCNC(=O)c3ccccc3F)n2C)s1 (configuration not stated) | inconclusive: 11.7 µM [inhibitor, partial curve]
O=c1oc(Nc2ccccc2F)nc2ccccc12 | inactive
COc1cccc(C(CC(=O)NCCN2CCOCC2)NS(=O)(=O)c2ccc(C)cc2)c1OC (configuration not stated) | inconclusive: 0.465 µM [inhibitor, full curve, poor fit]
O=C(CN1C(=O)/C(=C2\SC(=S)N(CCS(=O)(=O)O)C2=O)c2ccccc21)Nc1cccc(Br)c1 | inconclusive: 18.5 µM [inhibitor, single point]
CCc1ccc(S(=O)(=O)NCc2cn3ccccc3n2)s1 | inconclusive: 6.57 µM [inhibitor, partial curve]
COc1cccc(/C=N/Nc2ccc([N+](=O)[O-])cn2)c1O | inconclusive: 0.329 µM [inhibitor, full curve]
COc1ccc(CNC2=CC(=O)CC(C)(C)C2)cc1 | inconclusive: 11.7 µM [inhibitor, single point]
COc1ccc(-c2nn(-c3ccccc3)cc2C(=O)O)cc1 | inactive
CS(=O)(=O)N1CCN=C1SCc1ccccc1 | inconclusive: 18.5 µM [inhibitor, single point]
Cc1ccc(CCNC(=O)CCS(=O)(=O)c2ccc(Br)cc2)cc1 | inconclusive: 11.7 µM [inhibitor, single point]
CCSc1nnc(NC(=O)/C=C/c2ccco2)s1 | inconclusive: 18.5 µM [inhibitor, single point]
COc1ccc(NC(=O)CNC(=O)c2nn(-c3ccc(OC)c(Cl)c3)c(=O)c3ccccc23)c(OC)c1 | inactive
COc1cc(C(=O)CCN2CCC(c3ccccc3)C2)cc(OC)c1OC (configuration not stated) | inactive
O=C(Nc1c2c(nc3ccccc13)CCCC2)c1ccccc1Br | inconclusive: 18.5 µM [inhibitor, single point]
CCCn1c(N)c(N(CCOC)C(=O)c2cccc(C(F)(F)F)c2)c(=O)[nH]c1=O | inactive

An excerpt from above in order of SMILES length, low to high:
Compound | Potency
Cc1ccc(N=C(N)N=C(N)N)cc1 | inconclusive: 8.28 µM [inhibitor, partial curve]
Cn1c([N+](=O)[O-])cnc1COC(N)=O | inactive
Cn1cc(/C=N\NC(=O)c2cccs2)c2ccccc21 | active: 5.86 µM
COc1ccc(-c2nn(-c3ccccc3)cc2C(=O)O)cc1 | inactive
C=CCSc1nccc(-c2nn(-c3ccc(C)cc3)ccc2=O)n1 | inconclusive: 11.7 µM [inhibitor, single point]
CCCc1cc(=O)[nH]c(SCC(=O)N(CC)Cc2ccccc2)n1 | inconclusive: 4.15 µM [inhibitor, partial curve, poor fit]
C/C=C/c1cc(CN2CCN(c3ccccc3)CC2)c(O)c(OC)c1 | active: 1.65 µM
CN1CCN(c2ccc(NC(=O)COc3ccc4ccccc4c3)cc2)CC1 | inactive
Cc1ccc(CNC(=O)CN2c3cccc4cccc(c34)S2(=O)=O)cc1 | inconclusive: 18.5 µM [inhibitor, single point]
CCCCN(CCCC)C(=O)C1(P(=O)(c2ccccc2)c2ccccc2)CCC1 | inconclusive: 10.4 µM [inhibitor, single point]
CS(=O)(=O)N(CC(=O)NN=C1CCCCCC1)c1ccc(Oc2ccccc2)cc1 | inactive
CCOC(=O)c1c(C)oc2c1c(C=NC1CCS(=O)(=O)C1)c(O)c1ccccc12 (configuration not stated) | inactive
COc1cccc(C(CC(=O)NCCN2CCOCC2)NS(=O)(=O)c2ccc(C)cc2)c1OC (configuration not stated) | inconclusive: 0.465 µM [inhibitor, full curve, poor fit]
CCN1CCN(S(=O)(=O)c2ccc(Cl)c(C(=O)Nc3ccc(C(=O)N(CC)CC)cc3)c2)CC1 | inconclusive: 10.4 µM [inhibitor, single point]
CCN(CC(=O)Nc1ccc(NC(C)=O)cc1)C(=O)c1cccc(S(=O)(=O)N2c3ccccc3CC2C)c1 (configuration not stated) | inconclusive: 18.5 µM [inhibitor, single point]
